{"source": "patent US20240294543A1", "about": "“CYCLOHEPTA-THIENO-DIAZEPINE DERIVATIVES AS GABA A GAMMA1 PAM” (Hoffmann-La Roche Inc., priority 2021, published 2024)", "target": "human GABAA α1β3γ2 receptor (Homo sapiens (Human), UniProt P14867+P18507)", "test": "Radioligand binding assay, competition for [3H]Flumazenil, γ2-containing GABAA subtypes", "settings": "Log[Ki α1β3γ2 (nM)/Ki α2β2γ1 (nM)]", "description": "The affinity of compounds at GABAA γ2 subunit-containing receptors was measured by competition for [^3H]Flumazenil (81.1 Ci/mmol; Roche) binding to HEK293F cells expressing human (transiently transfected) receptors of composition α1β3γ2.\nHarvested pellets from HEK293F cells expressing the different GABAA γ2 receptor subtypes were resuspended in Mannitol Buffer pH 7,2-7,4 and processed as described above for the cells expressing the GABAA γ1 subunit-containing receptors.\nAssays were incubated to equilibrium for 1 hour at 4° C. and harvested onto GF/C uni-filters (Packard) by filtration using a Packard harvester and washing with ice-cold wash buffer (50 mM Tris; pH 7.5). After anhydrousing, filter-retained radioactivity was detected by liquid scintillation counting. Ki values were calculated using Excel-Fit (Microsoft) and are the means of two determinations.", "note": "At least one structure is not confirmed: it was looked up by name or label, or the drawing left a doubt."}
{"smiles": "Cc1nnc2n1-c1sc3c(c1C(c1c(F)cccc1F)=N[C@H]2C)COCC[C@H]3F", "note": "[Example 54, (7S,16R)-9-(2,6-difluorophenyl)-16-fluoro-3,7-dimethyl-13-oxa-18-thia-2,4,5,8-tetrazatetracyclo[8.8.0.02,6.011,17]octadeca-1(10),3,5,8,11(17)-pentaene]", "values": [{"measurement": "LogSel", "setting": "Table 1", "value": 2.15}]}
{"smiles": "Cc1nnc2n1-c1sc3c(c1C(c1c(F)cccc1F)=N[C@H]2C)CCCC3", "note": "[RE-B, (7S)-9-(2,6-difluorophenyl)-3,7-dimethyl-17-thia-2,4,5,8-tetrazatetracyclo[8.7.0.02,6.011,16]heptadeca-1(10),3,5,8,11(16)-pentaene, reference compound]", "values": [{"measurement": "LogSel", "setting": "Table 3", "value": 0.43}]}
